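Viability assay of Plasmodium falciparum sporozoites; the read-out is not stated. The concentration is filed as 10 mM, unlikely as a test dose, so the dose is not known. Direction is inferred from retests: higher values go with lower viability. Strong results were mostly tested again. Of about 34,000 compounds tested this way, about 280 (0.84%) reached 50% or more in at least one test.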

Each number is a percent effect as filed.
The record does not define 0% and 100%; most values in the screen are far below 50% and negative numbers occur (in some assays of this library far below -100).
This is an unselected part of the compounds tested.
Two or more numbers in one place are separate tests of the same structure; such repeats can differ widely.

structure	percent effect
CSCc1cc(F)ccc1CNC(=O)N1CCCC1	-4.035
CC(=O)c1c(O)ccnc1C(F)(F)F	-27.2
CN(C)C(CNCc1nc(-c2ccsc2)no1)c1cccc(F)c1 (centres undefined)	17.43
COc1ccccc1CNC(=O)c1ccccc1-n1cnc(CN)c1	12.72
Cc1n[nH]c(C)c1CCC(=O)N[C@@H]1CCC[C@@H](Oc2ccccc2)[C@@H]1O	4.22
O=C(O)C(F)(F)F.O=C(O)C(F)(F)F.[H][C@@]12CC(COc3ccccn3)C[C@@]1([H])N(Cc1csc(C)n1)CCO2 (some centres undefined)	5.026
O=C1COc2cc(C(=O)NS(=O)(=O)c3ccc(F)cc3F)ccc2N1	-6.732
Cc1ccc(C(=O)Nc2cn[nH]c2)cn1	-1.319
NC(=O)c1ccc(S(=O)(=O)NC(=O)COc2ccc3c(c2)CCC3)cc1	5.153
C[C@H](NC(=O)c1cnc(-c2ccccc2)nc1O)C(N)=O	-14.22
Cc1nc2c(N3CCC(O)(Cn4ccnc4)CC3)ncnc2o1	-1.424
[H][C@@]12C[C@@H](c3noc(C)n3)O[C@]1([H])CN(Cc1ccc3c(c1)OCO3)C2	12.86
Cc1ccc(NC(=O)NCCc2ccncc2C)c(N(C)C)n1	0.2725
COc1ncccc1NC(=O)c1cccc(C)n1	15.62
Cn1nc(C2CCCN(Cc3ccsc3)C2)c2nccnc21 (centres undefined)	-10.07
[H][C@@]12CN(CC(C)C)C[C@]1(C(=O)NCC1CC1)CCCN2c1ncccn1	1.864
COc1ccccc1NCC(=O)NCc1ccc(-c2ccn[nH]2)cc1	-12.17 & -10.84
CN1CCN(CCCNC(=O)CCc2nc3cc(Br)cnc3[nH]2)CC1	-15.71
CC(C)(C)c1cnc(CN2CCC[C@H]2CO)o1	2.289
O=C(Nc1cc(F)ccc1OCC1CCCO1)c1ccc(O)nc1 (centres undefined)	-0.4624
CCN1CCC2(CCC1=O)CN(c1ccnc(SC)n1)CCN2C (centres undefined)	13.73

Data taken from ChEMBL document CHEMBL3988442, “University of Dundee, Small-Polar-MMV Screening Library” (2021).